This note sets out measurements from EP2261259B1, “Immunoassay for N-(3-chlorophenyl)piperazine-based anti-depressants” (Randox Laboratories Ltd., priority 2009, dated 2010).

≈ marks a conversion by molar mass, not a printed value.

This assay deals with antibody of the invention. Put plainly: Competitive ELISA (antibody-coated microtitre plate, hapten-HRP conjugate, TMB, absorbance at 450 nm). The class given is binding, sheep. The conditions noted are these: standard concentration which produces 50% B/B0. On the procedure:
The process of developing an immunoassay is well known to the person skilled in the art. Briefly, for a competitive immunoassay in which the target analyte is a non-immunogenic molecule commonly referred to as a hapten, the following process is conducted: antibodies are produced by immunising an animal, preferably a mammalian animal, by repeated administration of an immunogen. The serum from the immunised animal is collected when the antibody titre is sufficiently high. A conjugate is added to a sample containing the target analyte and the raised antibodies, and the conjugate and analyte compete for binding to the antibodies. The process may comprise fixing said serum antibodies to a backing substrate such as a polystyrene solid support or a biochip. The antibodies can be polyclonal or monoclonal. The signal emitted in the immunoassay is proportionate to the amount of conjugate bound to the antibodies which in turn is inversely proportionate to the analyte concentration. The signal can be detected or quantified by comparison with a calibrator.
Trazodone and N-(3-chlorophenyl)piperazine were coupled by way of a crosslinker to bovine thyroglobulin (BTG). […] The absorbancies were read at 450nm with an ELISA microplate reader (BIO-TEK Instruments, EL340) and the means calculated. Antibody specificity and sensitivity were then determined […]

`O=c1n(CCCN2CCN(c3cccc(Cl)c3)CC2)nc2ccccn12` [Trazodone, 2-{3-[4-(3-chlorophenyl)-1-piperazinyl]propyl}-[1,2,4]triazolo[4,3-a]pyridin-3(2H)-one]: the half-maximal inhibitory concentration (IC50) was 0.532 ng/mL (≈ 1.43 nM).
